PubChem BioAssay AID1259254 – NCATS | 2017
In all, the deposit lists about 59,000 reagents; shown is an unselected part. About 1,550 of all reagents (2.6%) count as active. 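G2 share is only a proxy for re-replication; each gene was hit by three separate siRNAs, and active genes were retested.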 Raw values are not corrected between plates. Not given: the amount of reagent.

Screen: 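Finding genes that stop cells copying their DNA twice in one cycle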 (primary screen)
Cells: human HCT116 colorectal cancer cells
Reagent: single siRNA against human genes
Time to read-out: 3 days
Detection: 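Nuclei stained with Hoechst and imaged; cell-cycle phase assigned by DNA content; G2 share scaled per plate, non-targeting siRNA 0%, GMNN siRNA 100%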
Direction: G2 robust z-score and G2 cells, % of GMNN control: higher = more G2 cells, more excess DNA replication; raw share of cells in G2: higher = larger share of cells with G2 DNA content
Active means: 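An siRNA counts as active if its G2 robust z-score lies at least 5 MADs above the screen median; here such calls match roughly 38% of GMNN control or more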

no.	Target gene	PubChem SID	G2 robust z-score	G2 cells, % of GMNN control	raw share of cells in G2 (%)	activity call
1	SUPV3L1	SID160717548	-1.79	-9.65	2.43	inactive
2	SUPV3L1	SID160717549	-0.188	1.65	4.5	inactive
3	SUPV3L1	SID160717550	-0.714	-2.05	3.84	inactive
4	CCDC82	SID160749415	-0.792	-2.61	3.36	inactive
5	CCDC82	SID160749417	-0.186	1.66	5.03	inactive
6	CCDC82	SID160749418	-1.03	-4.27	1.21	inactive
7	SLCO1B1	SID160728822	-0.35	0.506	4	inactive
8	SLCO1B1	SID160728823	0.0733	3.48	7.21	inactive
9	SLCO1B1	SID160728824	3.68	28.9	17.9	inactive
10	CD9	SID160738528	1.56	13.9	9.94	inactive
11	CD9	SID160738538	-0.273	1.04	5.37	inactive
12	CD9	SID160738549	2.11	17.8	10.2	inactive
13	NFATC2IP	SID160752895	2.27	18.9	12.1	inactive
14	NFATC2IP	SID160752896	1.68	14.8	7.64	inactive
15	NFATC2IP	SID160752897	0.0654	3.43	4.01	inactive
16	FAM107B	SID160735048	2.21	18.5	10.6	inactive
17	FAM107B	SID160751267	4.93	37.6	18.5	inactive
18	FAM107B	SID160751268	-0.404	0.126	3.38	inactive
19	GSDMD	SID160749447	5.61	42.4	22.1	active
20	GSDMD	SID160749449	0.537	6.75	7.25	inactive
21	GSDMD	SID160749450	1.99	16.9	7.01	inactive
22	STKLD1	SID160760346	2.96	23.8	12.1	inactive
23	STKLD1	SID160760348	2.74	22.2	10.4	inactive
24	STKLD1	SID160760349	0.172	4.18	4.08	inactive
25	ASB9	SID160757775	1.97	16.8	10.5	inactive
26	ASB9	SID160757776	1.35	12.5	7.06	inactive
27	ASB9	SID160757777	-0.489	-0.473	2.41	inactive
28	SLC7A3	SID160752857	3.18	25.4	17.5	inactive
29	SLC7A3	SID160752858	2.08	17.6	12.5	inactive
30	SLC7A3	SID160752859	-0.183	1.68	5.11	inactive
31	WNT11	SID160718859	3.26	25.9	16.6	inactive
32	WNT11	SID160718860	0.401	5.79	6.19	inactive
33	WNT11	SID160718861	-0.34	0.572	3.55	inactive
34	NUDT19	SID160766596	1.26	11.8	8.11	inactive
35	NUDT19	SID160766597	0.36	5.5	5.7	inactive
36	NUDT19	SID160766598	-0.352	0.491	4.99	inactive
37	ZNF614	SID160750049	-0.4	0.152	2.85	inactive
38	ZNF614	SID160750050	-0.225	1.38	6.53	inactive
39	ZNF614	SID160750051	4.65	35.7	14.8	inactive
40	HGH1	SID160724412	2.79	22.6	13.1	inactive
41	HGH1	SID160724413	1.83	15.8	8.25	inactive
42	HGH1	SID160740381	2.12	17.9	10.7	inactive

Continued, starting with the last 6 of the part before.
no.	Target gene	PubChem SID	G2 robust z-score	G2 cells, % of GMNN control	raw share of cells in G2 (%)	activity call
37	ZNF614	SID160750049	-0.4	0.152	2.85	inactive
38	ZNF614	SID160750050	-0.225	1.38	6.53	inactive
39	ZNF614	SID160750051	4.65	35.7	14.8	inactive
40	HGH1	SID160724412	2.79	22.6	13.1	inactive
41	HGH1	SID160724413	1.83	15.8	8.25	inactive
42	HGH1	SID160740381	2.12	17.9	10.7	inactive
43	LAMTOR5	SID160728692	-0.776	-2.5	4.2	inactive
44	LAMTOR5	SID160728693	1.07	10.5	8.34	inactive
45	LAMTOR5	SID160728694	2.49	20.5	10.9	inactive
46	GAGE1	SID160768160	-0.821	-2.81	3.99	inactive
47	GAGE1	SID160768171	0.602	7.2	6.73	inactive
48	GAGE1	SID160768181	1.72	15.1	9.44	inactive
49	H3C4	SID160719893	-0.745	-2.27	4.12	inactive
50	H3C4	SID160719894	0.133	3.9	5.44	inactive
51	H3C4	SID160724156	1.19	11.4	7.37	inactive
52	CLCN5	SID160744254	-0.603	-1.28	4.82	inactive
53	CLCN5	SID160744265	3.98	31	15.3	inactive
54	CLCN5	SID160744276	1.73	15.2	10.3	inactive
55	PIK3R1	SID160714350	0.256	4.77	6.35	inactive
56	PIK3R1	SID160714351	0.395	5.75	5.23	inactive
57	PIK3R1	SID160714352	-1.32	-6.31	2.4	inactive
58	PRSS37	SID160757461	0.689	7.81	7.12	inactive
59	PRSS37	SID160757462	-0.238	1.29	3.51	inactive
60	PRSS37	SID160757463	-0.441	-0.135	2.53	inactive
61	ZNF398	SID160746227	1.85	16	8.44	inactive
62	ZNF398	SID160746228	-0.434	-0.0886	5.87	inactive
63	ZNF398	SID160746230	-0.617	-1.38	3.2	inactive
64	NDUFB6	SID160777874	5.03	38.4	20.7	active
65	NDUFB6	SID160777875	-1.09	-4.7	3.54	inactive
66	NDUFB6	SID160777876	2.65	21.6	10.3	inactive
67	AADAT	SID160740224	2.71	22	16	inactive
68	AADAT	SID160740225	0.42	5.92	6.43	inactive
69	AADAT	SID160740226	-0.213	1.47	4.36	inactive
